According to PubChem BioAssay AID493014 (National Center for Advancing Translational Sciences (NCATS), 2011):
The other results are listed elsewhere or left out. The main result of the screen is listed elsewhere. These columns were measured beside it and carry no call. The list favours compounds with an active or inconclusive main result. The note in brackets gives the kind of curve behind each potency; many fits are weak.

Experiment: qHTS Assay to Find Inhibitors of Chronic Active B-Cell Receptor Signaling
Details: ABC-DLBCL IkBa-CBG/CBR reporter, luminescence ratio (green luciferase fused to IkBa over red control in TMD8 lymphoma cells), 4 h
Method in brief: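 Cell line TMD8 (human ABC DLBCL), stably expressing tet-inducible CBG68-IkBa fusion and CBR; IMDM/0.5% FBS; cpd up to 46 uM; dox induction, 4 h, 37C/5% CO2; dual luminescence; green/red ratio; MG132 control.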

[1] = measured here: CBR red luminescence, cell number
[2] = measured here: IkBa-CBG green luminescence

Row | Structure (SMILES) | AC50 [1] | AC50 [2]
1 | Cc1nn(-c2ccccc2)c(C)c1C(=O)OCC(=O)N(C)C1CCS(=O)(=O)C1 (centres undefined) | 0.282 µM [falling, full curve] | 
2 | CCC(C(=O)NC1CCCC1)N(C(=O)Cn1nnc(-c2ccc(OC)c(OC)c2)n1)C1CCCCC1 (centres undefined) | 35.5 µM [falling, single point] | 
3 | COc1ccc(Nc2nc(-c3sc(C)nc3C)cs2)cc1 | 2.24 µM [rising, full curve, poor fit] | 11.2 µM [falling, partial curve, poor fit]
4 | CNC(=O)CC1C(=O)N(c2ccc(OC)cc2)C(=S)N1NC(=O)c1cccc(F)c1 (centres undefined) | 8.91 µM [rising, partial curve, poor fit] | 
5 | COc1cccc(NC(=O)c2ncc(Cl)c(Cl)c2Cl)c1 | 12.6 µM [falling, partial curve] | 
6 | O=C(Nc1ccc(Cl)c(Cl)c1)C1=Cc2ccccc2OC1 | 18.4 µM [falling, single point] | 32.6 µM [rising, partial curve, poor fit]
7 | CCc1ccc(NC(=S)NC2CC3CCCC(C2)N3Cc2ccccc2)cc1 (centres undefined) | 35.5 µM [falling, single point] | 
8 | Cc1cc(C)c(S(=O)(=O)c2ccccc2Cl)c(=O)[nH]1 | 20 µM [rising, single point] | 
9 | CCOc1ccc(CC2NCCc3cc(OCC)c(OCC)cc32)cc1OCC (centres undefined) | 35.5 µM [falling, single point] | 
10 | COC(=O)CSc1nc2ccc(NC(C)=O)cc2s1 | 8.91 µM [falling, partial curve] | 
11 | CC(C)NC(=S)N/N=C/c1cccs1 | 29.1 µM [rising, single point] | 
12 | COc1ccc(/C=C2/C(=O)ON=C2C)cc1Br | 0.794 µM [rising, partial curve, poor fit] | 
13 | CN(C)CCCN(Cc1ccccc1)C(=S)Nc1cccc(C(F)(F)F)c1 | 32.6 µM [falling, single point] | 
14 | Cc1ccnc(NC(=O)CCCOc2cc(=O)n(C)c3ccccc23)c1 | 35.5 µM [falling, single point] | 
15 | CC(C)(CNC(=O)c1cccs1)CNC(=O)c1cccs1 | 31.6 µM [falling, partial curve, poor fit] | 
16 | O=C(CCCC(=O)OCC(Cl)=C(Cl)Cl)Nc1ccccc1 | 29.1 µM [falling, single point] | 
17 | Brc1ccc(-c2cn3ccccc3n2)cc1 | 10 µM [falling, single point] | 
18 | c1nc(N2CCCCCC2)c2[nH]cnc2n1 | 29.1 µM [falling, partial curve, poor fit] | 
19 | O=C(NCC1CCCO1)c1nc2c(nnn2Cc2ccc(F)cc2)c(=O)[nH]1 (centres undefined) | 5.62 µM [rising, single point] | 
20 | N#Cc1c(-c2ccco2)nc(SCc2ccc(F)cc2)[nH]c1=O | 0.326 µM [rising, partial curve, poor fit] | 
21 | O=C(CSc1nc2c(c(=O)n1-c1ccc(Br)cc1)SCC2)NCc1ccco1 | 6.51 µM [rising, partial curve, poor fit] | 

Pulled by compound from the entries so far:
Row | Structure (SMILES) | AC50 [1] | AC50 [2]
13 | CN(C)CCCN(Cc1ccccc1)C(=S)Nc1cccc(C(F)(F)F)c1 | 32.6 µM [falling, single point] | 
8 | Cc1cc(C)c(S(=O)(=O)c2ccccc2Cl)c(=O)[nH]1 | 20 µM [rising, single point] | 

The list goes on:

Row | Structure (SMILES) | AC50 [1] | AC50 [2]
22 | CCc1nnc(NC(=O)C2CCCN2S(=O)(=O)c2ccc(F)cc2)s1 (centres undefined) | 16.4 µM [rising, single point] | 
23 | N#CC1CC(c2ccccc2)Nc2cc(Cl)ccc2N1 (centres undefined) | 5.62 µM [falling, full curve, poor fit] | 
24 | O=C(Nc1ccc(Cl)cc1)N1CCC(CN2CCCCCC2)CC1 | 14.1 µM [rising, partial curve] | 
25 | CNc1ccc(NC(C)=O)cc1[N+](=O)[O-] | 29.1 µM [rising, single point] | 
26 | COc1ccccc1NC(=O)CNC(=O)c1ccccc1 | 2.59 µM [falling, partial curve, poor fit] | 
27 | CCCNC(=O)c1ccc2c(c1)nc(C)n2-c1cccc(C)c1 | 35.5 µM [rising, single point] | 
28 | CC(=O)Nc1ccccc1NC(=O)C/C(C)=N/NC(=O)c1cccnc1 | 35.5 µM [falling, single point] | 
29 | Cc1cnc(C(=O)OCC(=O)Nc2cc(Cl)cc(Cl)c2)cn1 | 25.1 µM [falling, single point] | 20 µM [rising, partial curve, poor fit]
30 | Cc1cc(C(=O)N2CCCC(C(=O)c3ccc4ccccc4c3)C2)nn1C (centres undefined) | 17.8 µM [rising, partial curve, poor fit] | 
31 | Nc1nc(COc2ccccc2)cs1 | 18.4 µM [rising, single point] | 
32 | CCOC(=O)COc1cc(Br)c(/C=N/Nc2ccccc2)cc1OC | 10 µM [falling, partial curve, poor fit] | 
33 | Oc1c(C=C2N=c3ccccc3=N2)sc(=S)n1C1CCCCC1 | 5.17 µM [rising, full curve, poor fit] | 
34 | CSCCC(NC(N)=O)C(=O)Nc1ccc2ccccc2c1 (centres undefined) | 1.58 µM [rising, full curve, poor fit] | 
35 | O=C(Nc1cccnc1)c1ccc([N+](=O)[O-])s1 | 29.1 µM [rising, single point] | 
36 | COc1cc(CC(=O)Nc2ccc(S(=O)(=O)NC3=NCCCCC3)cc2)cc(OC)c1OC | 2.82 µM [rising, full curve, poor fit] | 
37 | Fc1cccc(Cl)c1CNc1ccc(N2CCCC2)cc1 | 20 µM [falling, single point] | 
38 | CCOC(=O)c1c(NC(=O)COc2ccc(CC)cc2)sc2c1CCCC2 | 35.5 µM [falling, single point] | 35.5 µM [rising, single point]
39 | COc1cc(OC)cc(C(=O)Nc2ccc(-c3nc4ccccc4s3)c(C)c2)c1 | 3.55 µM [rising, partial curve, poor fit] | 
40 | O=C1C(C=Nc2ccccc2O)=C(O)c2ccccc21 | 2.82 µM [falling, full curve] | 
41 | O=C(Nc1ccnn1C1CCN(CCCc2ccccc2)CC1)c1ccccc1 | 25.1 µM [falling, partial curve] | 
42 | O=C(N/N=C\C=C\c1ccc2c(c1)OCO2)c1cccnc1 | 29.1 µM [falling, single point] | 

Row | Structure (SMILES) | AC50 [1] | AC50 [2]
43 | CCOC(=O)C1=C(C)NC(C)=C(C(=O)OCC)C1C(=O)OCC(=O)NCc1ccco1 | 16.4 µM [rising, single point] | 23.1 µM [falling, partial curve, poor fit]
44 | O=c1[nH]c(C2CCN(S(=O)(=O)c3ccccc3)CC2)nc2c1nnn2Cc1ccccc1 | 0.316 µM [falling, full curve, poor fit] | 
45 | CSc1ccccc1COC(=O)Nc1ccccc1C | 1.78 µM [falling, partial curve, poor fit] | 
46 | CC(C(=O)NCC1CCCCC1)N(C)Cc1cccc(Cl)c1 (centres undefined) | 22.4 µM [falling, single point] | 
47 | Cc1ccc(C(C(=O)NC(C)(C)C)N(C(=O)CCC(=O)Nc2ccccn2)c2ccccc2F)cc1 (centres undefined) | 25.1 µM [falling, single point] | 
48 | Cn1cccc1/C=N/n1c(-c2ccc(C(C)(C)C)cc2)n[nH]c1=S | 35.5 µM [rising, partial curve, poor fit] | 
49 | COCCN1C(=O)c2ccccc2C(C(=O)NCCCN2CCCC2)C1c1c[nH]c2ccccc12 (centres undefined) | 0.731 µM [rising, full curve, poor fit] | 
50 | COCc1nnc(NS(=O)(=O)c2ccc(C)cc2)s1 | 6.51 µM [falling, single point] | 
51 | C/C(CC(=O)NCc1ccco1)=N\NC(=O)c1ccc([N+](=O)[O-])cc1Cl | 10 µM [falling, partial curve, poor fit] | 
52 | Cc1nnc(NC(=O)NC(C)N2C(=O)C3C4C=CC(C4)C3C2=O)s1 (centres undefined) | 3.98 µM [falling, partial curve, poor fit] | 
53 | O=C(Nc1c(C(=O)O)[nH]c2ccc(F)cc12)c1cccc(C(F)(F)F)c1 | 35.5 µM [rising, single point] | 
54 | CC(C)=CCN1CCN(Cc2cc3ccccc3[nH]2)CC1CCO (centres undefined) | 2.82 µM [rising, full curve, poor fit] | 
55 | CCOc1cc(C(=O)Nc2ccccc2N2CCN(S(C)(=O)=O)CC2)cc(OCC)c1OCC | 3.66 µM [rising, full curve, poor fit] | 
56 | Cc1cc(C)nc(SCC(=O)c2ccc(F)cc2F)n1 | 14.1 µM [rising, single point] | 
57 | CCOc1ccc(NC(=S)NNc2ccnc3cc(Cl)ccc23)cc1 | 35.5 µM [falling, single point] | 
58 | NC1=NC(c2ccc(F)cc2)n2c(nc3ccccc32)N1 (centres undefined) | 7.08 µM [falling, partial curve] | 
59 | O=C(CSc1nc2ccccc2c(=O)n1-c1ccc(F)cc1F)Nc1ccc2c(c1)CCC2 | 2.91 µM [rising, full curve] | 3.66 µM [falling, partial curve, poor fit]
60 | Oc1[nH]c2ccc(Br)cc2c1N=Nc1ccc(C(F)(F)F)cn1 | 0.0058 µM [rising, full curve, poor fit] | 
61 | Cc1ccc(S(=O)(=O)N(C)CCCC(=O)Nc2cc(C)ccc2C)cc1 | 11.6 µM [rising, partial curve] | 
62 | COc1ccc(C(=O)c2coc3c2C(=O)C(=O)c2ccccc2-3)cc1 | 35.5 µM [rising, single point] | 
63 | Cc1nc(N2CCN(c3ccccc3)CC2)nc2c1C(=O)CC(C)C2 (centres undefined) | 17.8 µM [rising, single point] | 

Among those listed so far, these have an NH in an aromatic ring:
Row | Structure (SMILES) | AC50 [1] | AC50 [2]
8 | Cc1cc(C)c(S(=O)(=O)c2ccccc2Cl)c(=O)[nH]1 | 20 µM [rising, single point] | 
18 | c1nc(N2CCCCCC2)c2[nH]cnc2n1 | 29.1 µM [falling, partial curve, poor fit] | 
19 | O=C(NCC1CCCO1)c1nc2c(nnn2Cc2ccc(F)cc2)c(=O)[nH]1 (centres undefined) | 5.62 µM [rising, single point] | 
20 | N#Cc1c(-c2ccco2)nc(SCc2ccc(F)cc2)[nH]c1=O | 0.326 µM [rising, partial curve, poor fit] | 
44 | O=c1[nH]c(C2CCN(S(=O)(=O)c3ccccc3)CC2)nc2c1nnn2Cc1ccccc1 | 0.316 µM [falling, full curve, poor fit] | 
48 | Cn1cccc1/C=N/n1c(-c2ccc(C(C)(C)C)cc2)n[nH]c1=S | 35.5 µM [rising, partial curve, poor fit] | 
49 | COCCN1C(=O)c2ccccc2C(C(=O)NCCCN2CCCC2)C1c1c[nH]c2ccccc12 (centres undefined) | 0.731 µM [rising, full curve, poor fit] | 
53 | O=C(Nc1c(C(=O)O)[nH]c2ccc(F)cc12)c1cccc(C(F)(F)F)c1 | 35.5 µM [rising, single point] | 
54 | CC(C)=CCN1CCN(Cc2cc3ccccc3[nH]2)CC1CCO (centres undefined) | 2.82 µM [rising, full curve, poor fit] | 
60 | Oc1[nH]c2ccc(Br)cc2c1N=Nc1ccc(C(F)(F)F)cn1 | 0.0058 µM [rising, full curve, poor fit] | 
